Measurements reported in PubChem BioAssay AID1508597 (Cure First, 2020).

Assay: 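Knock-downs altering ovarian cancer cell survival with or without PARP inhibitor rucaparib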 (primary screen)
Cells: human ovarian carcinoma lines grown from tumours: OCI-P5x (papillary serous) and OCI-C5x (clear cell)
Knock-down reagent: siRNA pool against human genes, 1.25 pmol siRNA per well
Timing: 72 h or 96 h, depending on the cell culture
Conditions: rucaparib 20 µM (about IC30) or vehicle, present until read-out
Measurement: 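Luminescent ATP-based viability assay read 72 or 96 h after transfection, depending on culture, given as normalised percent viability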
Direction: viability, normalised: higher = more viable cells remaining
Hit rule: 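a well counts as a hit if its normalised viability is under 80 percent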
Meaning of the calls: active = viability under 80%; inactive = viability 80% or more
The deposit covers about 2,100 reagents; below is a part drawn at random. 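Calls flag viability under 80% in either arm, not effects specific to rucaparib; the reference for percent is not stated.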 A reagent listed more than once was tested more than once; the source does not tell the runs apart. Not stated in the record: the 100% reference.

| gene | rucaparib or vehicle | cell line | technical replicate | viability, normalised (%) | Outcome |
| --- | --- | --- | --- | --- | --- |
| DPH5 (diphthamide biosynthesis 5) | Rucaparib | OCI-C5x (clear cell) | 1 | 32.7 | active |
| DPH5 (diphthamide biosynthesis 5) | Rucaparib | OCI-C5x (clear cell) | 2 | 32.7 | active |
| DPH5 (diphthamide biosynthesis 5) | Rucaparib | OCI-C5x (clear cell) | 3 | 27.5 | active |
| DPH5 (diphthamide biosynthesis 5) | Rucaparib | OCI-P5x (serous) | 1 | 42.2 | active |
| DPH5 (diphthamide biosynthesis 5) | Rucaparib | OCI-P5x (serous) | 2 | 39.9 | active |
| DPH5 (diphthamide biosynthesis 5) | Rucaparib | OCI-P5x (serous) | 3 | 42 | active |
| DPH5 (diphthamide biosynthesis 5) | Vehicle | OCI-C5x (clear cell) | 1 | 29.1 | active |
| DPH5 (diphthamide biosynthesis 5) | Vehicle | OCI-C5x (clear cell) | 2 | 37.2 | active |
| DPH5 (diphthamide biosynthesis 5) | Vehicle | OCI-C5x (clear cell) | 3 | 35 | active |
| DPH5 (diphthamide biosynthesis 5) | Vehicle | OCI-P5x (serous) | 1 | 30.7 | active |
| DPH5 (diphthamide biosynthesis 5) | Vehicle | OCI-P5x (serous) | 2 | 34.4 | active |
| DPH5 (diphthamide biosynthesis 5) | Vehicle | OCI-P5x (serous) | 3 | 81.3 | inactive |
| CHUK | Rucaparib | OCI-C5x (clear cell) | 1 | 48.1 | active |
| CHUK | Rucaparib | OCI-C5x (clear cell) | 2 | 49.7 | active |
| CHUK | Rucaparib | OCI-C5x (clear cell) | 3 | 56.2 | active |
| CHUK | Rucaparib | OCI-P5x (serous) | 1 | 66.7 | active |
| CHUK | Rucaparib | OCI-P5x (serous) | 2 | 62.6 | active |
| CHUK | Rucaparib | OCI-P5x (serous) | 3 | 58.7 | active |
| CHUK | Vehicle | OCI-C5x (clear cell) | 1 | 56 | active |
| CHUK | Vehicle | OCI-C5x (clear cell) | 2 | 74.7 | active |
| CHUK | Vehicle | OCI-C5x (clear cell) | 3 | 59.2 | active |
| CHUK | Vehicle | OCI-P5x (serous) | 1 | 71.6 | active |
| CHUK | Vehicle | OCI-P5x (serous) | 2 | 60.7 | active |
| CHUK | Vehicle | OCI-P5x (serous) | 3 | 65.8 | active |
| SCMH1 (Scm polycomb group protein homolog 1) | Rucaparib | OCI-C5x (clear cell) | 1 | 40.5 | active |
| SCMH1 (Scm polycomb group protein homolog 1) | Rucaparib | OCI-C5x (clear cell) | 2 | 53.8 | active |
| SCMH1 (Scm polycomb group protein homolog 1) | Rucaparib | OCI-C5x (clear cell) | 3 | 42.1 | active |
| SCMH1 (Scm polycomb group protein homolog 1) | Rucaparib | OCI-P5x (serous) | 1 | 40.7 | active |
| SCMH1 (Scm polycomb group protein homolog 1) | Rucaparib | OCI-P5x (serous) | 2 | 44.7 | active |
| SCMH1 (Scm polycomb group protein homolog 1) | Rucaparib | OCI-P5x (serous) | 3 | 47.8 | active |
| SCMH1 (Scm polycomb group protein homolog 1) | Vehicle | OCI-C5x (clear cell) | 1 | 38.4 | active |
| SCMH1 (Scm polycomb group protein homolog 1) | Vehicle | OCI-C5x (clear cell) | 2 | 45.9 | active |
| SCMH1 (Scm polycomb group protein homolog 1) | Vehicle | OCI-C5x (clear cell) | 3 | 36.9 | active |
| SCMH1 (Scm polycomb group protein homolog 1) | Vehicle | OCI-P5x (serous) | 1 | 44.5 | active |
| SCMH1 (Scm polycomb group protein homolog 1) | Vehicle | OCI-P5x (serous) | 2 | 70.6 | active |
| SCMH1 (Scm polycomb group protein homolog 1) | Vehicle | OCI-P5x (serous) | 3 | 155 | inactive |
| KDM5B (lysine demethylase 5B) | Rucaparib | OCI-C5x (clear cell) | 1 | 47.8 | active |
| KDM5B (lysine demethylase 5B) | Rucaparib | OCI-C5x (clear cell) | 2 | 30.4 | active |
| KDM5B (lysine demethylase 5B) | Rucaparib | OCI-C5x (clear cell) | 3 | 31.9 | active |
| KDM5B (lysine demethylase 5B) | Rucaparib | OCI-P5x (serous) | 1 | 51.2 | active |
| KDM5B (lysine demethylase 5B) | Rucaparib | OCI-P5x (serous) | 2 | 45.3 | active |
| KDM5B (lysine demethylase 5B) | Rucaparib | OCI-P5x (serous) | 3 | 39 | active |
| KDM5B (lysine demethylase 5B) | Vehicle | OCI-C5x (clear cell) | 1 | 44.8 | active |
| KDM5B (lysine demethylase 5B) | Vehicle | OCI-C5x (clear cell) | 2 | 42.1 | active |
| KDM5B (lysine demethylase 5B) | Vehicle | OCI-C5x (clear cell) | 3 | 34.5 | active |
| KDM5B (lysine demethylase 5B) | Vehicle | OCI-P5x (serous) | 1 | 55.6 | active |
| KDM5B (lysine demethylase 5B) | Vehicle | OCI-P5x (serous) | 2 | 68.7 | active |
| KDM5B (lysine demethylase 5B) | Vehicle | OCI-P5x (serous) | 3 | 97.5 | inactive |
| TBL1XR1 (TBL1X/Y related 1) | Rucaparib | OCI-C5x (clear cell) | 1 | 26.6 | active |
| TBL1XR1 (TBL1X/Y related 1) | Rucaparib | OCI-C5x (clear cell) | 1 | 59.9 | active |
| TBL1XR1 (TBL1X/Y related 1) | Rucaparib | OCI-C5x (clear cell) | 2 | 31.3 | active |
| TBL1XR1 (TBL1X/Y related 1) | Rucaparib | OCI-C5x (clear cell) | 2 | 57.4 | active |
| TBL1XR1 (TBL1X/Y related 1) | Rucaparib | OCI-C5x (clear cell) | 3 | 36.6 | active |
| TBL1XR1 (TBL1X/Y related 1) | Rucaparib | OCI-C5x (clear cell) | 3 | 48 | active |
| TBL1XR1 (TBL1X/Y related 1) | Rucaparib | OCI-P5x (serous) | 1 | 63.9 | active |
| TBL1XR1 (TBL1X/Y related 1) | Rucaparib | OCI-P5x (serous) | 1 | 31.2 | active |
| TBL1XR1 (TBL1X/Y related 1) | Rucaparib | OCI-P5x (serous) | 2 | 83.9 | inactive |
| TBL1XR1 (TBL1X/Y related 1) | Rucaparib | OCI-P5x (serous) | 2 | 33.3 | active |
| TBL1XR1 (TBL1X/Y related 1) | Rucaparib | OCI-P5x (serous) | 3 | 32.2 | active |
| TBL1XR1 (TBL1X/Y related 1) | Rucaparib | OCI-P5x (serous) | 3 | 76.3 | active |
| TBL1XR1 (TBL1X/Y related 1) | Vehicle | OCI-C5x (clear cell) | 1 | 44.8 | active |
| TBL1XR1 (TBL1X/Y related 1) | Vehicle | OCI-C5x (clear cell) | 1 | 58.8 | active |
| TBL1XR1 (TBL1X/Y related 1) | Vehicle | OCI-C5x (clear cell) | 2 | 37.2 | active |
| TBL1XR1 (TBL1X/Y related 1) | Vehicle | OCI-C5x (clear cell) | 2 | 63.3 | active |
| TBL1XR1 (TBL1X/Y related 1) | Vehicle | OCI-C5x (clear cell) | 3 | 36.6 | active |
| TBL1XR1 (TBL1X/Y related 1) | Vehicle | OCI-C5x (clear cell) | 3 | 47.4 | active |
| TBL1XR1 (TBL1X/Y related 1) | Vehicle | OCI-P5x (serous) | 1 | 44 | active |
| TBL1XR1 (TBL1X/Y related 1) | Vehicle | OCI-P5x (serous) | 1 | 89.2 | inactive |
| TBL1XR1 (TBL1X/Y related 1) | Vehicle | OCI-P5x (serous) | 2 | 35.3 | active |
| TBL1XR1 (TBL1X/Y related 1) | Vehicle | OCI-P5x (serous) | 2 | 62.3 | active |
| TBL1XR1 (TBL1X/Y related 1) | Vehicle | OCI-P5x (serous) | 3 | 92.3 | inactive |
| TBL1XR1 (TBL1X/Y related 1) | Vehicle | OCI-P5x (serous) | 3 | 40.1 | active |
